Reference: patent publication US12173037
No constants are given. Whether binding was seen depends on the method and setting. Some entries that bind do so weakly or less than the wild type.

Target: T1, wild-type human NGAL (Neutrophil Gelatinase Associated Lipocalin) (human), P80188
T1 chain: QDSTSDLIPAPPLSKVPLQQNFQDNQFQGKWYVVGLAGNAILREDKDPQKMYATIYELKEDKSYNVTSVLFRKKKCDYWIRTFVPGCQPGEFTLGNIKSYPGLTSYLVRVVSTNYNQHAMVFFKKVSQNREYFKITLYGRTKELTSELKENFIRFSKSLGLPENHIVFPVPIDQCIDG
Assay: Western blot, homodimer formation
Settings: remark: other sources report otherwise

binding: binds
B1: wild-type human NGAL (Neutrophil Gelatinase Associated Lipocalin), P80188 21-198 (ligand)
chain: QDSTSDLIPAPPLSKVPLQQNFQDNQFQGKWYVVGLAGNAILREDKDPQKMYATIYELKEDKSYNVTSVLFRKKKCDYWIRTFVPGCQPGEFTLGNIKSYPGLTSYLVRVVSTNYNQHAMVFFKKVSQNREYFKITLYGRTKELTSELKENFIRFSKSLGLPENHIVFPVPIDQCIDG
